# Assay results as given in PubChem BioAssay (EPA / NIEHS).
# Amino acid sequences for entries named in this document (tags omitted).
# UniProt P19643, whole entry, looked up: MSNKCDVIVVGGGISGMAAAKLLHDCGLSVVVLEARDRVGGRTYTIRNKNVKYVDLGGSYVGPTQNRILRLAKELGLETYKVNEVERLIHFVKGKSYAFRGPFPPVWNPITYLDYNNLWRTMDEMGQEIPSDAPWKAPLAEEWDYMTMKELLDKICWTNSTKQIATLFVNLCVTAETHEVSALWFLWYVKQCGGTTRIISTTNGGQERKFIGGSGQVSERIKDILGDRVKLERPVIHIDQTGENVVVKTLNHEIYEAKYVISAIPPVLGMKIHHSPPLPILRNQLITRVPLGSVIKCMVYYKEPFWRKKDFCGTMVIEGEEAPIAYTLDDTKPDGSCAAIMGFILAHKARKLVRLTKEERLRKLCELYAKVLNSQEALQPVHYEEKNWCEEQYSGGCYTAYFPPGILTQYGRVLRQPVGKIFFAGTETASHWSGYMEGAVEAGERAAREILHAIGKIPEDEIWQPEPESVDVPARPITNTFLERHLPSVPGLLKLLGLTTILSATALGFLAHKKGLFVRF
# Inconclusive results, whose numbers are uncertain, are shown with a selection of clear calls. A potency beside an inconclusive call is a rough fit, not a confirmed value. Active and inactive are the calls of the source. Rule for the calls: active = hit-call score of the fitted dose curve at least 0.9, where 1 is the maximum; inconclusive = response in the unintended direction; inactive = score below 0.9.
# Molecular target: rat Monoamine Oxidase, MAO-B, Central (MAOBC), Maob (gene 25750) (UniProt P19643)
# Experiment: NVS_ENZ_rMAOBC: NovaScreen (NVS) Enzymatic Assay for rat Monoamine Oxidase, MAO-B, Central (MAOBC) (AID 2283238)
# In short: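 Here MAO-B activity in rat brain preparations is quantified radiometrically, counts taken at 1.17 hours. Concentration-response runs reach 50 uM, with plate controls, and values are fitted as loss of signal from the DMSO baseline.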
Structure (SMILES),AC50,outcome
COc1ccc([N+](=O)[O-])cc1N,active: 25000 nM,–
c1ccc2ncccc2c1,–,inactive
Cn1cnc2c1c(=O)[nH]c(=O)n2C,inconclusive: 2450 nM,–
O=C(NS(=O)(=O)/C=C/c1cccs1)c1ccc(F)cc1Br,–,inactive
CCOC(=O)CCC(=O)OCC,inconclusive: 74.5 nM,–
C[C@@H]1C[C@H]2[C@@H]3CCC4=CC(=O)C=C[C@]4(C)[C@@]3(F)[C@@H](O)C[C@]2(C)[C@@]1(O)C(=O)COP(=O)(O)O,inconclusive: 217 nM,–
CCCOC(=O)c1ccc(C(=O)OCCC)nc1,inconclusive: 72.7 nM,–
O=C=NCCCCCCN=C=O,inconclusive: 150 nM,–
NC(=O)N(O)[C@@H]1COc2cc(OCc3ccccc3)ccc21,active: 12200 nM,–

# Single records, from the list above.
# `O=C(NS(=O)(=O)/C=C/c1cccs1)c1ccc(F)cc1Br` is listed as outcome: inactive
# `COc1ccc([N+](=O)[O-])cc1N` is listed as AC50: active: 25000 nM
